These results are taken from publication PMC6048040.

The chains behind the UniProt entries cited, without tags or fusion partners. Where a name states a change or a piece, a line headed by the entry shows the natural chain unless it says otherwise.
UniProt Q14676: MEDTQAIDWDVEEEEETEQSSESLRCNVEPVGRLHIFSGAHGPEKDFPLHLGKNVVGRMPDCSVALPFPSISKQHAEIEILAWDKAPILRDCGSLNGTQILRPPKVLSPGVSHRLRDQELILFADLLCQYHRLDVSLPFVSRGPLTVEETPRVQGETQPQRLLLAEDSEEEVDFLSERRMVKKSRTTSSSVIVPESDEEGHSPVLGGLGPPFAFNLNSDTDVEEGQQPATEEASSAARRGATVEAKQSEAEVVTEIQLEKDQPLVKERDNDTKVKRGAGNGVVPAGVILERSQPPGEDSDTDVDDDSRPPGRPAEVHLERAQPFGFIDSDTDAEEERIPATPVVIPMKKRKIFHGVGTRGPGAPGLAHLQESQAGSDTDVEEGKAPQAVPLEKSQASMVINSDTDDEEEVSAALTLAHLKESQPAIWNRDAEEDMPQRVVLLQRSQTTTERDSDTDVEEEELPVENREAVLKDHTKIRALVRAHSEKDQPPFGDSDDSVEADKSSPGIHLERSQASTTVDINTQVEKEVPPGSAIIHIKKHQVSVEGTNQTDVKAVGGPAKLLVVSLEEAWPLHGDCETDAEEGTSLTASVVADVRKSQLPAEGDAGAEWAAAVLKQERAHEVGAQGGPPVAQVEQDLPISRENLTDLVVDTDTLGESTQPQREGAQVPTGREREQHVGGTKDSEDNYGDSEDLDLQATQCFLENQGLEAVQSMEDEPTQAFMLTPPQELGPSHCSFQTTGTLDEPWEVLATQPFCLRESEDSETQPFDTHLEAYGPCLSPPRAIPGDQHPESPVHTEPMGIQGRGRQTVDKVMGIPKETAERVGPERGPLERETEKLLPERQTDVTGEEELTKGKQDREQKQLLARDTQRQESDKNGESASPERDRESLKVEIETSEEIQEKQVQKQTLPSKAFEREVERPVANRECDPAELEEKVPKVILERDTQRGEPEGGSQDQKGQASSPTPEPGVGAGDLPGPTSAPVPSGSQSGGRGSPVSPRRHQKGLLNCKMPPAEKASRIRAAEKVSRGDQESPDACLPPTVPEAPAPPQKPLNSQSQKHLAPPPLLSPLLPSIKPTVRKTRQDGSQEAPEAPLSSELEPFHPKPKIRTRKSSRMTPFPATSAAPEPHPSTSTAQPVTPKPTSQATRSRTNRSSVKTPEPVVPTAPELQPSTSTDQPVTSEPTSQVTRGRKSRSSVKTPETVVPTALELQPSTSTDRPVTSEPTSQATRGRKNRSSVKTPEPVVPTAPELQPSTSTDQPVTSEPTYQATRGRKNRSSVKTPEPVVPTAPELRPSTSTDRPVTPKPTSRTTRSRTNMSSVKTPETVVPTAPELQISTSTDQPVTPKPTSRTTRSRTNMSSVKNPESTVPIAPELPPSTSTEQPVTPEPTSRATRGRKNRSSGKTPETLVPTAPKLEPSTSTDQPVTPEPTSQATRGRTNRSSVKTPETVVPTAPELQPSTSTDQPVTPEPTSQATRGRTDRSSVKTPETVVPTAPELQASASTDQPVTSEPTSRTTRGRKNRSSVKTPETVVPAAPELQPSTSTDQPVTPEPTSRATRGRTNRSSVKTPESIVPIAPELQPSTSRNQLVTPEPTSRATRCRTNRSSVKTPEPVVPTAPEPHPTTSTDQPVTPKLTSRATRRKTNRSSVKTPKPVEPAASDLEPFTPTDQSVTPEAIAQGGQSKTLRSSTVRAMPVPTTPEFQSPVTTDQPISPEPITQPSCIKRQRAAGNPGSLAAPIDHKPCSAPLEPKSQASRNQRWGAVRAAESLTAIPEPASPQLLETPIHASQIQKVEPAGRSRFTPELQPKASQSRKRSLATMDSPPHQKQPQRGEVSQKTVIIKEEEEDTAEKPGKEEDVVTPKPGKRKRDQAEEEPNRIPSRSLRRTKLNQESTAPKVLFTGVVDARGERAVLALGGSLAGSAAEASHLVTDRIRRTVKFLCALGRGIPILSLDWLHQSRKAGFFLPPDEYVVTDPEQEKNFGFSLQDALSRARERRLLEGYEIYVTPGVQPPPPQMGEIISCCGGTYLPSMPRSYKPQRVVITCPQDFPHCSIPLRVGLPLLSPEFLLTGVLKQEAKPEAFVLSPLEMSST
UniProt Q5JVG8: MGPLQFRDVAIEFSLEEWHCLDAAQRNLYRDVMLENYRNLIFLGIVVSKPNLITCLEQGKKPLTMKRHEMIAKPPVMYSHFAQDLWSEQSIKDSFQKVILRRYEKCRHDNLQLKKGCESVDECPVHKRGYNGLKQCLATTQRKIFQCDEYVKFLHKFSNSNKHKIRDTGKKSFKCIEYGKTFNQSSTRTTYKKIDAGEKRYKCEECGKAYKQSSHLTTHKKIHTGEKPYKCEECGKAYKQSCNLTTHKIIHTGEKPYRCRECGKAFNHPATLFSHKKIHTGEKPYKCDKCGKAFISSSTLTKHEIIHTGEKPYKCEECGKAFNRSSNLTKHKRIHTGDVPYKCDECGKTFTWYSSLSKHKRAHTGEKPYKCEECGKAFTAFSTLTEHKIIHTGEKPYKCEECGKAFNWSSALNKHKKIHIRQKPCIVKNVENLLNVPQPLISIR

Test [1] deals with GST-tagged FHA domain of MDC1 (UniProt Q14676). As to the kind of experiment: pull-down; GST pull-down in vitro; GST fusion protein on glutathione Sepharose, incubated 1 h at 4 °C, washed with NETN buffer.
Test [2] shares this target. As to the kind of experiment: pull-down; biotinylated ZNF506 peptides incubated with GST control or purified GST-tagged FHA domain of MDC1; blot; both purified.
The target of test [3] is FLAG-tagged ZNF506 ∆ZN (deletion of zinc-finger domains). The test is described as follows: co-IP; FLAG-tagged ZNF506 constructs expressed in HEK293 cells with endogenous ZNF506 knocked out by CRISPR; irradiated (10 Gy or indicated doses), lysates after an hour, immunoprecipitation with FLAG.

No constants are given. Whether binding was seen depends on the method and setting. For part of these data: A result given as binding can be weak or reduced; the word gives no strength. For part of these data: Binding seen in cells or lysates may run through a third protein.

Turning to “ZNF506 (as used in the GST pull-down of Fig. 2b) (from UniProt Q5JVG8 1-444)”, in test [1], the binding result is listed as “binds”. As to GLKQCLATTQRKIFQCDEYK (pThr at the ninth residue (T140 of ZNF506); C-terminal Lys(Biotin)) [ZNF506 pT140 peptide], in test [2], the binding entry was “binds”.

B1: EYA1 (enzyme, UniProt Q99502 1-592)
chain: MEMQDLTSPHSRLSGSSESPSGPKLGNSHINSNSMTPNGTEVKTEPMSSSETASTTADGSLNNFSGSAIGSSSFSPRPTHQFSPPQIYPSNRPYPHILPTPSSQTMAAYGQTQFTTGMQQATAYATYPQPGQPYGISSYGALWAGIKTEGGLSQSQSPGQTGFLSYGTSFSTPQPGQAPYSYQMQGSSFTTSSGIYTGNNSLTNSSGFNSSQQDYPSYPSFGQGQYAQYYNSSPYPAHYMTSSNTSPTTPSTNATYQLQEPPSGITSQAVTDPTAEYSTIHSPSTPIKDSDSDRLRRGSDGKSRGRGRRNNNPSPPPDSDLERVFIWDLDETIIVFHSLLTGSYANRYGRDPPTSVSLGLRMEEMIFNLADTHLFFNDLEECDQVHIDDVSSDDNGQDLSTYNFGTDGFPAAATSANLCLATGVRGGVDWMRKLAFRYRRVKEIYNTYKNNVGGLLGPAKREAWLQLRAEIEALTDSWLTLALKALSLIHSRTNCVNILVTTTQLIPALAKVLLYGLGIVFPIENIYSATKIGKESCFERIIQRFGRKVVYVVIGDGVEEEQGAKKHAMPFWRISSHSDLMALHHALELEYL
Turning to B1, in test [3], the binding entry is “no binding”.
